Laboratory results: PubChem BioAssay AID1159584 (Peter MacCallum Cancer Centre, 2016)
Purpose: 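Genes whose loss is lethal only together with E-cadherin loss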 (primary screen). Cells: human MCF10A breast epithelial cells, parental and CDH1-null. Knock-down reagent: siRNA against human genes. Measurement: 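ATP luminescence (CellTiter-Glo) viability per line relative to mean mock wells over all plates, and the ratio of CDH1-null to parental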. Scale: CDH1-null / parental viability ratio: higher = CDH1-null cells survive relatively better than parental.
This is an unselected part of about 18,000 reagents tested. Further read-outs or replicates are left out here. Not given: the amount of reagent, the time to read-out.

target | CDH1-null / parental viability ratio
SLC1A4 (GeneID 6509) | 1.07
INPP5J (GeneID 27124) | 1.68
ATRAID (GeneID 51374) | 1.31
LIN7B (GeneID 64130) | 0.92
TRIM39 (GeneID 56658) | 0.96
CTSH (GeneID 1512) | 1.1
MAGEL2 (GeneID 54551) | 1.07
ZNF250 (GeneID 58500) | 1.1
PCOTH (GeneID 542767) | 1.02
SERPINI1 (GeneID 5274) | 1.33
PSME4 (GeneID 23198) | 0.96
FZD1 (GeneID 8321) | 0.94
CARTPT (GeneID 9607) | 1
ACTR2 (GeneID 10097) | 1.17
TP63 (GeneID 8626) | 1.11
ACCSL (GeneID 390110) | 0.96
ESRRA (GeneID 2101) | 1.1
SIPA1L2 (GeneID 57568) | 0.9
SYT7 (GeneID 9066) | 1
HDC (GeneID 3067) | 0.93
CARINH (GeneID 441108) | 1.02
LIPT1 (GeneID 51601) | 0.99
MOAP1 (GeneID 64112) | 1.32
DUOXA1 (GeneID 90527) | 0.92
S1PR1 (GeneID 1901) | 1.3
PCCB (GeneID 5096) | 1.03
ECE1 (GeneID 1889) | 1.23
INTS3 (GeneID 65123) | 0.96
CENPP (GeneID 401541) | 1.04
CDK5 (GeneID 1020) | 0.9
MATCAP2 (GeneID 23366) | 1.08
SNAI1 (GeneID 6615) | 1.07
EEF1B2 (GeneID 1933) | 1.3
OR13C5 (GeneID 138799) | 1.05
DUSP8 (GeneID 1850) | 1.17
CENPK (GeneID 64105) | 0.89
NFATC2IP (GeneID 84901) | 1.39
BLVRA (GeneID 644) | 0.91
ADSS2 (GeneID 159) | 1.17
TAT (GeneID 6898) | 0.98
SLCO1B3 (GeneID 28234) | 0.99
RNF5 (GeneID 6048) | 1.02
SLC24A1 (GeneID 9187) | 1.11
USF3 (GeneID 205717) | 1.32
SLC33A2 (GeneID 113655) | 0.89

Entries listed so far whose gene name begins with T or t (3):
target | CDH1-null / parental viability ratio
TRIM39 (GeneID 56658) | 0.96
TP63 (GeneID 8626) | 1.11
TAT (GeneID 6898) | 0.98

Further entries follow.
target | CDH1-null / parental viability ratio
PLEKHF1 (GeneID 79156) | 1.11
RANBP10 (GeneID 57610) | 1.05
NEUROG1 (GeneID 4762) | 1
PTP4A1 (GeneID 7803) | 1.13
KCNMA1 (GeneID 3778) | 1.11
C12orf71 (GeneID 728858) | 0.73
COL17A1 (GeneID 1308) | 0.74
UBA7 (GeneID 7318) | 1
HBB (GeneID 3043) | 1.04
ABT1 (GeneID 29777) | 0.89
GPR161 (GeneID 23432) | 0.83
VPREB3 (GeneID 29802) | 1.16
HLA-K (GeneID 3138) | 1.38
GLP1R (GeneID 2740) | 1.25
NUDCD1 (GeneID 84955) | 1.08
TMEM145 (GeneID 284339) | 0.95
SKA1 (GeneID 220134) | 1.5
CLEC4F (GeneID 165530) | 1.02
OR6B2 (GeneID 389090) | 1.32
PARP3 (GeneID 10039) | 0.99
CD300LD-AS1 (GeneID 146723) | 0.97
ECSCR (GeneID 641700) | 1.34
MAEL (GeneID 84944) | 1.05
AATF (GeneID 26574) | 0.99
MRM3 (GeneID 55178) | 1.06
MAN1B1 (GeneID 11253) | 1.03
SH2D4B (GeneID 387694) | 1.13
CFAP100 (GeneID 348807) | 1.39
COQ3 (GeneID 51805) | 1.42
PSME3 (GeneID 10197) | 1.21
ASPHD1 (GeneID 253982) | 1.13
TMEM132A (GeneID 54972) | 1.11
MYO10 (GeneID 4651) | 1.06
FRY (GeneID 10129) | 1
ATF6 (GeneID 22926) | 0.98
ROBO3 (GeneID 64221) | 1.04
ANXA11 (GeneID 311) | 1.03
CFAP53 (GeneID 220136) | 1.13
RGMA (GeneID 56963) | 0.74
IVD (GeneID 3712) | 1.3
LRWD1 (GeneID 222229) | 0.99
RNF151 (GeneID 146310) | 0.83
